Test [1] has as its target human NLR family CARD domain containing 4 (NLRC4) (human) (UniProt Q9NPP4). In words: proximity ligation assay (PLA) on human donor-eye tissue sections.
Test [2] addresses mouse NLR family CARD domain containing 4 (Nlrc4) (mouse) (UniProt Q3UP24). In words: fluorescent staining, colocalization of endogenous proteins in Alu RNA-treated BMDM.
For test [3] the target is unchanged. Put plainly: immunofluorescence colocalization in Alu RNA-treated mouse BMDMs.
For test [4], the target named is human DEAD-box helicase 17 (DDX17) (human) (UniProt Q92841). In words: proximity ligation assay (PLA) on human AMD tissue.

Chains of the proteins cited; added tags and fusions are not shown. Lines headed by an entry give the natural chain unless they say otherwise; changes in a name come on top.
UniProt Q3UP24: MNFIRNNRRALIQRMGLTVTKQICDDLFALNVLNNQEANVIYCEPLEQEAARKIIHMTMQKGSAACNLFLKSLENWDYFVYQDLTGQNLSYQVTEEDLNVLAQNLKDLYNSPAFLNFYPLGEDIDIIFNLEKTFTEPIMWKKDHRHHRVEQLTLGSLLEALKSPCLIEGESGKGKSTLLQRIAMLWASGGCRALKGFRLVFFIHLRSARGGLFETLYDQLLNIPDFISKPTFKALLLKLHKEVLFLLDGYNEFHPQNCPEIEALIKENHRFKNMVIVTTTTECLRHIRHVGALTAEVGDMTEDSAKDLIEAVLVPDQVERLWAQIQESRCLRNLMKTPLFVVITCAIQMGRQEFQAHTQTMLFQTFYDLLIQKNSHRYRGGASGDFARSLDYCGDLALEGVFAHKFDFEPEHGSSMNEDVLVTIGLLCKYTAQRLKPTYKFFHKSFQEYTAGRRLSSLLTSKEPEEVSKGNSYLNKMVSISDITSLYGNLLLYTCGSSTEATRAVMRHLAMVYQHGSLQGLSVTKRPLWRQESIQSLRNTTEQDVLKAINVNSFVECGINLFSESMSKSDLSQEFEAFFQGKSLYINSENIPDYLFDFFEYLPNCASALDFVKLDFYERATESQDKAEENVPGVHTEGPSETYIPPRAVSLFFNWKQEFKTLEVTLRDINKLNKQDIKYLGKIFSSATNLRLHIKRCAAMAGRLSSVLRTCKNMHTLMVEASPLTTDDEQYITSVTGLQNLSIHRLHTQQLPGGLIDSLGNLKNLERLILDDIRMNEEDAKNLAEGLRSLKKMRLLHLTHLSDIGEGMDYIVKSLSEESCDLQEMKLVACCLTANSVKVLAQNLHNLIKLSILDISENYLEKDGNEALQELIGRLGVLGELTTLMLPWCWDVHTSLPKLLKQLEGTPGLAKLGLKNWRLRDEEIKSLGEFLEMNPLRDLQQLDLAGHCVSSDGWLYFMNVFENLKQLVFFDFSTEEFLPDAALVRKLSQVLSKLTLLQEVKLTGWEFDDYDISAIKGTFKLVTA
UniProt Q92841: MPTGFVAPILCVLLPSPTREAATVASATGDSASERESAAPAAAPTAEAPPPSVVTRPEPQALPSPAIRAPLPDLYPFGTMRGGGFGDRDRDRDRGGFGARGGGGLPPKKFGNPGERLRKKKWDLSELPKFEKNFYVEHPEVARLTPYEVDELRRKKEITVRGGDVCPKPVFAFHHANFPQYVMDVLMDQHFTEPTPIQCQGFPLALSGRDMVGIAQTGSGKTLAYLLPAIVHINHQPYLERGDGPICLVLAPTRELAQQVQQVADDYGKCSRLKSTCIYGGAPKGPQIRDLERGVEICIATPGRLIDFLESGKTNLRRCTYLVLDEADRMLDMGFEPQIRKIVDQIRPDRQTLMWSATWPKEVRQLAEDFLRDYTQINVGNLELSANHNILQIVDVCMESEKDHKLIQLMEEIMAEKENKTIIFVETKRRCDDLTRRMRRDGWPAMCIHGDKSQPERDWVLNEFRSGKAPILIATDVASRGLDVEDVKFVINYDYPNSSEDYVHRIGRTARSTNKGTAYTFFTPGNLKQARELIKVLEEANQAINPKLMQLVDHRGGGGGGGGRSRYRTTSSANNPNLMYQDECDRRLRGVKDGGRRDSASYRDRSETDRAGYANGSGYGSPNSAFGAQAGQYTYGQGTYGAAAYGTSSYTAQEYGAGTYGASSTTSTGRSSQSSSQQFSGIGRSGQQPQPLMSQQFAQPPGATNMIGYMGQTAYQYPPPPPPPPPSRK
UniProt Q501J6: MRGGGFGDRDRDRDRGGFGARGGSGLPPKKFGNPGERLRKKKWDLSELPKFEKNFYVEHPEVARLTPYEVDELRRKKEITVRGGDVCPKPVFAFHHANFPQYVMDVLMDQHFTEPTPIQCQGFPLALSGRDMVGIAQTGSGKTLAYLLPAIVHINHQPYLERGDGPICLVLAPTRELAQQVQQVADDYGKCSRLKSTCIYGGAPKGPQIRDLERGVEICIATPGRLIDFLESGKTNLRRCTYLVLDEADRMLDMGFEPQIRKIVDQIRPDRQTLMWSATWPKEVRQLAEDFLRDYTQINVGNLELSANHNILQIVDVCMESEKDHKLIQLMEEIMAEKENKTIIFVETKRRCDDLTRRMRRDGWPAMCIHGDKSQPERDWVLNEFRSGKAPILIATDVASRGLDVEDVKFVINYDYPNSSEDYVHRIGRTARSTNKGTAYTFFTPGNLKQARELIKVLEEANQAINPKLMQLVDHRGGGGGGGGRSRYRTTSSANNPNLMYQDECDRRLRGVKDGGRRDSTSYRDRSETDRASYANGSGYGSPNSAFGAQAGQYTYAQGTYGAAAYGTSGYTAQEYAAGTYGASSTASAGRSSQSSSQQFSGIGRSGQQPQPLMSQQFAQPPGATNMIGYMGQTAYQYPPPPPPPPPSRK

No constants are given. Whether binding was seen depends on the method and setting. For some of these results: In cells and extracts the contact can be indirect. Some binding calls cover weakened binding; strength is not graded here.

Consider “human DEAD-box helicase 17 (DDX17) (from UniProt Q92841 2-729) (enzyme)”, for which, in test [1], the binding entry is on record as “binds”.

“mouse DEAD-box helicase 17 (Ddx17) (from UniProt Q501J6 1-650) (enzyme)”: the binding entry in test [2] and in test [3] was “binds” throughout.

B1: human NLR family CARD domain containing 4 (NLRC4) (receptor)
chain: MNFIKDNSRALIQRMGMTVIKQITDDLFVWNVLNREEVNIICCEKVEQDAARGIIHMILKKGSESCNLFLKSLKEWNYPLFQDLNGQSLFHQTSEGDLDDLAQDLKDLYHTPSFLNFYPLGEDIDIIFNLKSTFTEPVLWRKDQHHHRVEQLTLNGLLQALQSPCIIEGESGKGKSTLLQRIAMLWGSGKCKALTKFKFVFFLRLSRAQGGLFETLCDQLLDIPGTIRKQTFMAMLLKLRQRVLFLLDGYNEFKPQNCPEIEALIKENHRFKNMVIVTTTTECLRHIRQFGALTAEVGDMTEDSAQALIREVLIKELAEGLLLQIQKSRCLRNLMKTPLFVVITCAIQMGESEFHSHTQTTLFHTFYDLLIQKNKHKHKGVAASDFIRSLDHCGDLALEGVFSHKFDFELQDVSSVNEDVLLTTGLLCKYTAQRFKPKYKFFHKSFQEYTAGRRLSSLLTSHEPEEVTKGNGYLQKMVSISDITSTYSSLLRYTCGSSVEATRAVMKHLAAVYQHGCLLGLSIAKRPLWRQESLQSVKNTTEQEILKAININSFVECGIHLYQESTSKSALSQEFEAFFQGKSLYINSGNIPDYLFDFFEHLPNCASALDFIKLDFYGGAMASWEKAAEDTGGIHMEEAPETYIPSRAVSLFFNWKQEFRTLEVTLRDFSKLNKQDIRYLGKIFSSATSLRLQIKRCAGVAGSLSLVLSTCKNIYSLMVEASPLTIEDERHITSVTNLKTLSIHDLQNQRLPGGLTDSLGNLKNLTKLIMDNIKMNEEDAIKLAEGLKNLKKMCLFHLTHLSDIGEGMDYIVKSLSSEPCDLEEIQLVSCCLSANAVKILAQNLHNLVKLSILDLSENYLEKDGNEALHELIDRMNVLEQLTALMLPWGCDVQGSLSSLLKHLEEVPQLVKLGLKNWRLTDTEIRILGAFFGKNPLKNFQQLNLAGNRVSSDGWLAFMGVFENLKQLVFFDFSTKEFLPDPALVRKLSQVLSKLTFLQEARLVGWQFDDDDLSVITGAFKLVTA
notes: Endogenous protein of human RPE cells and of human donor eyes
As to B1, the binding entry in test [4] was “binds”.

The record behind these values is patent US20220280543A1, “DDX17 AND NLRC4 TARGETING FOR INFLAMMATORY DISEASES” (University of Virginia Patent Foundation, priority 2019, published 2022).
